Measured values taken from patent publication US20240100112A1, “TRADITIONAL CHINESE MEDICINE OINTMENT FOR PREVENTING AND TREATING MASTITIS IN DAIRY COWS, AND PREPARATION METHOD THEREOF” (Hunan University of Science and Engineering, priority 2022, published 2024).
Part of at least one peptide drawing is inferred or uncertain, most often the ends. No end group written: not given here.

Tested on: Staphylococcus aureus
Experiment: Filter paper disc bacteriostatic circle test
Assay type: cell-based
Details: summary of Table 2, Staphylococcus aureus and Escherichia coli

FFRKVLKLIRKIWR [Phe Phe Arg Lys Val Leu Lys Leu Ile Arg Lys Ile Trp Arg]
antibacterial effect (in words): strong antibacterial effect
